# Experimental data as given in the supplement of paper PMC8728848.
# Some of the results follow.
# Columns and labels:
# Test in all cases: glycan array binding signal (z-score within array); higher = stronger binding
# Conditions in all cases: glycan notation: IUPAC condensed, linker removed
# [1] = molecular target: Gal(b1-3)[Fuc(a1-4)]GlcNAc
# Summary of the method: (§1)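 Glycan array data came from 3228 arrays in the Consortium for Functional Glycomics database, and only arrays with an available protein sequence were kept. Glycan names were put into IUPAC-condensed notation, and columns mapping to the same glycan were averaged. The binding signal is a within-array Z-score, averaged across arrays of one protein sequence run at different concentrations or buffers and across linkers. A negative Z-score can be read as non-binding.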
# [2] = molecular target: Gal(b1-3)[Fuc(a1-4)]GlcNAc(b1-2)Man(a1-3)[Gal(b1-3)[Fuc(a1-4)]GlcNAc(b1-2)Man(a1-6)]Man(b1-4)GlcNAc(b1-4)GlcNAc
# Summary of the method: as §1
# [3] = molecular target: Gal(b1-3)[Fuc(a1-4)]GlcNAc(b1-2)Man(a1-3)[Gal(b1-3)[Fuc(a1-4)]GlcNAc(b1-2)Man(a1-6)]Man(b1-4)GlcNAc(b1-4)[Fuc(a1-6)]GlcNAc
# Summary of the method: as §1
# [4] = molecular target: Gal(b1-3)[Fuc(a1-4)]GlcNAc(b1-3)Gal(b1-3)[Fuc(a1-4)]GlcNAc
# Summary of the method: as §1
# [5] = molecular target: Gal(b1-3)[Fuc(a1-4)]GlcNAc(b1-3)Gal(b1-4)GlcNAc
# Summary of the method: as §1
# [6] = molecular target: Gal(b1-3)[Fuc(a1-4)]GlcNAc(b1-3)Gal(b1-4)[Fuc(a1-3)]GlcNAc
# Summary of the method: as §1
# [7] = molecular target: Gal(b1-3)[GlcNAc(b1-6)]GalNAc
# Summary of the method: as §1
# [8] = molecular target: Gal(b1-3)[Neu5Ac(a2-6)]GalNAc
# Summary of the method: as §1
# [9] = molecular target: Gal(b1-3)[Neu5Ac(a2-6)]GlcNAc(b1-6)Gal(b1-4)Glc
# Summary of the method: as §1
# [10] = molecular target: Gal(b1-3)[Neu5Ac(b2-6)]GalNAc
# Summary of the method: as §1
# [11] = molecular target: Gal(b1-4)GalNAc(a1-3)[Fuc(a1-2)]Gal(b1-4)GlcNAc
# Summary of the method: as §1
# [12] = molecular target: Gal(b1-4)GalNAc(b1-3)[Fuc(a1-2)]Gal(b1-4)GlcNAc
# Summary of the method: as §1
# Gal(b1-4)Glc = molecular target: Gal(b1-4)Glc
# Summary of the method: as §1
# Gal(b1-4)Glc6S = molecular target: Gal(b1-4)Glc6S
# Summary of the method: as §1
# Gal(b1-4)GlcNAc = molecular target: Gal(b1-4)GlcNAc
# Summary of the method: as §1
# [13] = molecular target: Gal(b1-4)GlcNAc(a1-6)Gal(b1-4)GlcNAc
# Summary of the method: as §1
# [14] = molecular target: Gal(b1-4)GlcNAc(b1-2)Man(a1-3)Man(b1-4)GlcNAc(b1-4)GlcNAc
# Summary of the method: as §1
# [15] = molecular target: Gal(b1-4)GlcNAc(b1-2)Man(a1-3)[Gal(b1-4)GlcNAc(b1-2)Man(a1-6)]Man(b1-4)GlcNAc(b1-4)GlcNAc
# Summary of the method: as §1
# [16] = molecular target: Gal(b1-4)GlcNAc(b1-2)Man(a1-3)[Gal(b1-4)GlcNAc(b1-2)Man(a1-6)]Man(b1-4)GlcNAc(b1-4)[Fuc(a1-6)]GlcNAc
# Summary of the method: as §1
# [17] = molecular target: Gal(b1-4)GlcNAc(b1-2)Man(a1-3)[GlcNAc(b1-2)Man(a1-6)]Man(b1-4)GlcNAc(b1-4)GlcNAc
# Summary of the method: as §1
# [18] = molecular target: Gal(b1-4)GlcNAc(b1-2)Man(a1-3)[Man(a1-6)]Man(b1-4)GlcNAc(b1-4)GlcNAc
# Summary of the method: as §1
# [19] = molecular target: Gal(b1-4)GlcNAc(b1-2)Man(a1-6)Man(b1-4)GlcNAc(b1-4)GlcNAc
# Summary of the method: as §1
# [20] = molecular target: Gal(b1-4)GlcNAc(b1-2)Man(a1-6)[GlcNAc(b1-2)Man(a1-3)]Man(b1-4)GlcNAc(b1-4)GlcNAc
# Summary of the method: as §1
# [21] = molecular target: Gal(b1-4)GlcNAc(b1-2)Man(a1-6)[Man(a1-3)]Man(b1-4)GlcNAc(b1-4)GlcNAc
# Summary of the method: as §1
# [22] = molecular target: Gal(b1-4)GlcNAc(b1-2)[Gal(b1-4)GlcNAc(b1-4)]Man(a1-3)[Gal(b1-4)GlcNAc(b1-2)Man(a1-6)]Man(b1-4)GlcNAc(b1-4)GlcNAc
# Summary of the method: as §1
# [23] = molecular target: Gal(b1-4)GlcNAc(b1-2)[Gal(b1-4)GlcNAc(b1-4)]Man(a1-3)[Gal(b1-4)GlcNAc(b1-2)[Gal(b1-4)GlcNAc(b1-6)]Man(a1-6)]Man(b1-4)GlcNAc(b1-4)GlcNAc
# Summary of the method: as §1
# [24] = molecular target: Gal(b1-4)GlcNAc(b1-3)Gal(b1-3)GlcNAc
# Summary of the method: as §1
# [25] = molecular target: Gal(b1-4)GlcNAc(b1-3)Gal(b1-4)Glc
# Summary of the method: as §1
# [26] = molecular target: Gal(b1-4)GlcNAc(b1-3)Gal(b1-4)GlcNAc
# Summary of the method: as §1
# [27] = molecular target: Gal(b1-4)GlcNAc(b1-3)Gal(b1-4)GlcNAc(b1-3)Gal(b1-4)GlcNAc
# Summary of the method: as §1
# [28] = molecular target: Gal(b1-4)GlcNAc(b1-3)Gal(b1-4)[Fuc(a1-3)]GlcNAc(b1-3)Gal(b1-4)[Fuc(a1-3)]GlcNAc
# Summary of the method: as §1
# [29] = molecular target: Gal(b1-4)GlcNAc(b1-3)GalNAc
# Summary of the method: as §1
# [30] = molecular target: Gal(b1-4)GlcNAc(b1-3)[Gal(b1-4)GlcNAc(b1-6)]Gal(b1-4)GlcNAc
# Summary of the method: as §1
# [31] = molecular target: Gal(b1-4)GlcNAc(b1-3)[Gal(b1-4)GlcNAc(b1-6)]GalNAc
# Summary of the method: as §1
# [32] = molecular target: Gal(b1-4)GlcNAc(b1-3)[GlcNAc(b1-6)]Gal(b1-4)GlcNAc
# Summary of the method: as §1
# [33] = molecular target: Gal(b1-4)GlcNAc(b1-6)Gal(b1-4)GlcNAc
# Summary of the method: as §1
# [34] = molecular target: Gal(b1-4)GlcNAc(b1-6)GalNAc
# Summary of the method: as §1
# [35] = molecular target: Gal(b1-4)GlcNAc(b1-6)[Gal(b1-3)]GalNAc
# Summary of the method: as §1
# Gal3S(b1-3)GalNAc = molecular target: Gal3S(b1-3)GalNAc
# Summary of the method: as §1
# Gal3S(b1-3)GlcNAc = molecular target: Gal3S(b1-3)GlcNAc
# Summary of the method: as §1
# [36] = molecular target: Gal3S(b1-3)[Fuc(a1-4)]GlcNAc
# Summary of the method: as §1
# Gal3S(b1-4)Glc = molecular target: Gal3S(b1-4)Glc
# Summary of the method: as §1
# Gal3S(b1-4)Glc6S = molecular target: Gal3S(b1-4)Glc6S
# Summary of the method: as §1
# Gal3S(b1-4)GlcNAc = molecular target: Gal3S(b1-4)GlcNAc
# Summary of the method: as §1
# Gal3S(b1-4)GlcNAc6S = molecular target: Gal3S(b1-4)GlcNAc6S
# Summary of the method: as §1
binder,measurement,setting,value
"CREG (Mus musculus), O88668 (protein) MAARAPELARSLLAALLAPALVALLVSPASGRGGRDHGDWDVDRRLPPLPPREDGPRVARFVTHVSDWGSLATISTIKEVRGWPFADIISISDGPPGEGTGEPYMYLSPLQQAVSDLQENPEATLTMSLAQTVYCRNHGFDPQSPLCVHIMMSGTVTKVNKTEEDYARDSLFVRHPEMKHWPSSHNWFFAKLKISRIWVLDYFGGPKVVTPEEYFNVTLQ",glycan array binding signal (z-score),[1],0.01
same,glycan array binding signal (z-score),[2],6.79
same,glycan array binding signal (z-score),[3],1.15
same,glycan array binding signal (z-score),[4],-0.353
same,glycan array binding signal (z-score),[5],0.78
same,glycan array binding signal (z-score),[6],-1.05
same,glycan array binding signal (z-score),[7],-0.993
same,glycan array binding signal (z-score),[8],-0.832
same,glycan array binding signal (z-score),[9],-0.76
same,glycan array binding signal (z-score),[10],-0.2
same,glycan array binding signal (z-score),[11],0.494
same,glycan array binding signal (z-score),[12],-0.296
same,glycan array binding signal (z-score),Gal(b1-4)Glc,-0.925
same,glycan array binding signal (z-score),Gal(b1-4)Glc6S,-0.13
same,glycan array binding signal (z-score),Gal(b1-4)GlcNAc,-0.275
same,glycan array binding signal (z-score),[13],-1.31
same,glycan array binding signal (z-score),[14],-0.442
same,glycan array binding signal (z-score),[15],-0.345
same,glycan array binding signal (z-score),[16],-0.152
same,glycan array binding signal (z-score),[17],-0.966
same,glycan array binding signal (z-score),[18],-0.344
same,glycan array binding signal (z-score),[19],0.102
same,glycan array binding signal (z-score),[20],-0.462
same,glycan array binding signal (z-score),[21],0.159
same,glycan array binding signal (z-score),[22],0.311
same,glycan array binding signal (z-score),[23],-1.07
same,glycan array binding signal (z-score),[24],-1.13
same,glycan array binding signal (z-score),[25],0.23
same,glycan array binding signal (z-score),[26],-0.941
same,glycan array binding signal (z-score),[27],-0.96
same,glycan array binding signal (z-score),[28],-0.877
same,glycan array binding signal (z-score),[29],-0.139
same,glycan array binding signal (z-score),[30],-0.344
same,glycan array binding signal (z-score),[31],-0.072
same,glycan array binding signal (z-score),[32],-0.416
same,glycan array binding signal (z-score),[33],-0.162
same,glycan array binding signal (z-score),[34],1.18
same,glycan array binding signal (z-score),[35],-0.076
same,glycan array binding signal (z-score),Gal3S(b1-3)GalNAc,0.036
same,glycan array binding signal (z-score),Gal3S(b1-3)GlcNAc,0.636
same,glycan array binding signal (z-score),[36],-1.04
same,glycan array binding signal (z-score),Gal3S(b1-4)Glc,-0.026
same,glycan array binding signal (z-score),Gal3S(b1-4)Glc6S,-0.488
same,glycan array binding signal (z-score),Gal3S(b1-4)GlcNAc,-1.01
same,glycan array binding signal (z-score),Gal3S(b1-4)GlcNAc6S,0.604

# Quoted at random: 2 records from the list
binder,measurement,setting,value
"CREG (Mus musculus), O88668 (protein) MAARAPELARSLLAALLAPALVALLVSPASGRGGRDHGDWDVDRRLPPLPPREDGPRVARFVTHVSDWGSLATISTIKEVRGWPFADIISISDGPPGEGTGEPYMYLSPLQQAVSDLQENPEATLTMSLAQTVYCRNHGFDPQSPLCVHIMMSGTVTKVNKTEEDYARDSLFVRHPEMKHWPSSHNWFFAKLKISRIWVLDYFGGPKVVTPEEYFNVTLQ",glycan array binding signal (z-score),[21],0.159
same,glycan array binding signal (z-score),[27],-0.96
